Results taken from patent publication US7775469B2, “Purposeful movement of human migratory cells away from an agent source” (The General Hospital Corporation, priority 1999, dated 2010).
For some assays here: At least one structure is not confirmed: it was looked up by name or label, or the drawing left a doubt. Some results were stated once for a whole list of compounds, not compound by compound.

Assays:
[1] = system: Jurkat T-cells; test: Transwell transmigration of Jurkat T-cells to HepG2CM fractions, with inhibitors; format: cell-based, human; conditions: Jurkat cells pretreated with inhibitor
[2] = system: CD8+CD45RA+ T-cells; test: Transwell transmigration assay with recombinant HIV-1IIIB gp120 and inhibitors; format: cell-based, human; conditions: cells pretreated with inhibitor
Description: Purified T-cell and thymocyte subpopulations (5×10^4 cells) were added to the upper chamber of each well in a total volume of 150 μl of IMDM alone.
Cells were pretreated with anti-CXCR-4 (Pharmingen, San Diego, Calif.) at 20 μg/ml for 30 minutes at room temperature, pertussis toxin (PTX) (100 ng/ml for 1 hour at 37° C.), genistein (1 μg/ml for 20 minutes at 37° C.), herbimycin ([…] for 20 minutes 37° C.), wortmannin (1 μM for 20 minutes at 37° C.), 8-Br-cAMP (100 μM for 15 minutes at room temperature) or 8-Br-cGMP (100 μM for 15 minutes at room temperature) (Sigma Chemical Company, St Louis, Mo.) prior to their addition to the upper chambers of the transwells in selected experiments. Transwells prepared in this way were incubated for 3 hours at 37° C./5% C02 incubator. Cells were harvested from the lower chamber after 3 hours and cell counts performed using a hemocytometer.

| SMILES | fugetaxis induced by Fraction 18, level after inhibitor [1] | effect on bidirectional movement of T-cells induced by HIV-1IIIB gp120 [2] |
| --- | --- | --- |
| CO[C@H]1[C@@H](OC)C[C@H](C)[C@@H](OC)C2=CC(=O)C=C(NC(=O)/C(C)=C/C=C\[C@H](OC)[C@@H](OC(N)=O)/C(C)=C/[C@@H]1C)C2=O [herbimycin] | 40-60 % of the control level |  |
| COC[C@H]1OC(=O)c2coc3c2[C@@]1(C)C1=C(C3=O)[C@@H]2CCC(=O)[C@@]2(C)C[C@H]1OC(C)=O [wortmannin] |  | inhibited |
